Experiment [1] deals with T1, TRIM8 (endogenous) (human (endogenous in PC9)) (UniProt Q9BZR9).
T1 sequence: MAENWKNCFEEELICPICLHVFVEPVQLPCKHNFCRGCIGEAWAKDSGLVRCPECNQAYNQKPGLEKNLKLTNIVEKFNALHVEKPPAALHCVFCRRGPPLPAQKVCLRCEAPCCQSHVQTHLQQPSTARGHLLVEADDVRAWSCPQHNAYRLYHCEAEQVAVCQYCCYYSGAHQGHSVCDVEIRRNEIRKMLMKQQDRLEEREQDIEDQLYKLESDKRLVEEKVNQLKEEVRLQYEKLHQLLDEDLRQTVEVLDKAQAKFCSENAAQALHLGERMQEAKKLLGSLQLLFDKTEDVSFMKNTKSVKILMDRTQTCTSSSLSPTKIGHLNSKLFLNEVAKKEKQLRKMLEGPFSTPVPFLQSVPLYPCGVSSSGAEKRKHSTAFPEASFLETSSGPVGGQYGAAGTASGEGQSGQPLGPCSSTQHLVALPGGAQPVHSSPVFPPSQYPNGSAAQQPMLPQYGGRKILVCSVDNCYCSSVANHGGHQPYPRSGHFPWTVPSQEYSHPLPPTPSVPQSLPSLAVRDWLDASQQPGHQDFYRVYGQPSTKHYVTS
The experiment can be described thus: co-IP; reciprocal co-IPs with an anti-TRIM8 antibody, blots for ATP1A1 and LAPTM4B (Supplementary Fig. S8K-L).

The chains behind the UniProt entries cited, without tags or fusion partners. Where a name states a change or a piece, a line headed by the entry shows the natural chain unless it says otherwise.
UniProt Q86VI4: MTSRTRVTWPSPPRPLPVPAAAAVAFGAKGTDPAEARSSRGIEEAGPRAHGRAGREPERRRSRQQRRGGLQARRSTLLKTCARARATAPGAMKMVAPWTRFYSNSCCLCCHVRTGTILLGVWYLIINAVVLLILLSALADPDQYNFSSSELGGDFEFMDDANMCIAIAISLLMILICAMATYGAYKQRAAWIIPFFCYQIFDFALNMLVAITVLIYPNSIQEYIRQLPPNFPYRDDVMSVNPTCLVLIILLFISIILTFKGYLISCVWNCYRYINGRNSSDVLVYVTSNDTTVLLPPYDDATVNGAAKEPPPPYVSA

Experiment [2] has as its target LAPTM4B-24-3xFlag (Flag-tagged LAPTM4B). In words: co-IP; lysates of PC9 (some also HCC827) cells stably expressing the Flag-tagged bait, and control cells, precipitated with anti-Flag beads or antibody; partner detected by immunoblot (anti-HA, anti-ATP1A1, anti-TRIM8). (In general: In western blotting, separated proteins are transferred to a membrane and probed.)

These are yes or no findings as the source states them, for the method shown. Binding seen in cells or lysates may run through a third protein. Binding calls can cover weak binding; strength is not graded here.

Regarding “LAPTM4B (as probed in the reciprocal co-IPs) (from UniProt Q86VI4)”, the binding result in experiment [1] is “binds”.

B1: TRIM8 (endogenous) (enzyme, UniProt Q9BZR9 1-551)
chain: T1 sequence
Take B1: the binding entry in experiment [2] is recorded as “binds”.

The values are drawn from PMC12681703.
